Experimental data reported in the supplement of paper PMC9744312.
Structures can show the parent of a compound that is named as a salt. The list shows a part of the results. Single values of this set are uncertain.

System: Peyronie's disease tunica albuginea primary fibroblasts
Assay: cell viability (DRAQ5 nuclear stain) relative to TGF-beta1-only control; higher = more viable cells
Details: 10 µM; TGF-beta1 10 ng/mL; 72 h

Compound | cell viability [%]
CCN(CC)CCNC(=O)c1cc(Cl)c(N)cc1OC [Metoclopramide HCl] | 86.3
CC1=NN(c2ccccc2)C(=O)C1 [Edaravone] | 87.1
CN1CC(=O)N2[C@H](c3ccc4c(c3)OCO4)c3[nH]c4ccccc4c3C[C@@H]2C1=O [Tadalafil] | 86.6
CCN(C(=O)c1c(O)c2c(Cl)cccc2n(C)c1=O)c1ccccc1 [Laquinimod] | 96.7
CC(=O)[C@@]1(O)CC[C@H]2[C@@H]3C[C@H](C)C4=CC(=O)C=C[C@]4(C)[C@@]3(F)[C@@H](O)C[C@@]21C [Fluorometholone] | 93
CCc1nc(N)nc(N)c1-c1ccc(Cl)cc1 [Pyrimethamine] | 94.4
CC(C)NCC(O)COc1ccc(CCOCC2CC2)cc1 (stereo unspecified) [Betaxolol HCl] | 88.3
CC(C)NCC(O)COc1ccc(CCOCC2CC2)cc1 (stereo unspecified) [Betaxolol] | 91.7
COc1cc(C(=O)NCc2ccc(OCCN(C)C)cc2)cc(OC)c1OC [Tribenzagan Hydrochloride] | 78
CCCN1CCCC[C@H]1C(=O)Nc1c(C)cccc1C [Ropivacaine HCl] | 88
CCCN1CCCC[C@H]1C(=O)Nc1c(C)cccc1C [Ropivacaine] | 101
CC(C)(OCc1nn(Cc2ccccc2)c2ccccc12)C(=O)O [Bindarit] | 90.1
C/C(=C\c1csc(C)n1)[C@@H]1C[C@@H]2O[C@]2(C)CCC[C@H](C)[C@H](O)[C@@H](C)C(=O)C(C)(C)[C@@H](O)CC(=O)N1 | 68.7
C#CCN[C@@H]1CCc2ccccc21 [Rasagiline Mesylate] | 94.4
CCOc1nc2cccc(C(=O)OCc3oc(=O)oc3C)c2n1Cc1ccc(-c2ccccc2-c2noc(=O)[nH]2)cc1 [Azilsartan Medoxomil] | 88.7
CC(C)C(=O)Oc1ccc(CO)cc1[C@H](CCN(C(C)C)C(C)C)c1ccccc1 [Fesoterodine Fumarate] | 100
O=C(O)C(=O)O.[NH-][C@@H]1CCCC[C@H]1[NH-].[Pt+2] [Oxaliplatin] | 67.9
CCc1cc2c(cc1N1CCC(N3CCOCC3)CC1)C(C)(C)c1[nH]c3cc(C#N)ccc3c1C2=O [Alectinib hydrochloride] | 97.8
CCOC(=O)O[C@]1(C(=O)OCCl)CC[C@H]2[C@@H]3CCC4=CC(=O)C=C[C@]4(C)[C@H]3[C@@H](O)C[C@@]21C [Loteprednol etabonate] | 82.8
Clc1ccc(C(Cn2ccnc2)OCc2ccsc2Cl)c(Cl)c1 (stereo unspecified) [Tioconazole] | 86.5
NC(=O)CCC(N)C(=O)O (racemic) [DL-Glutamine] | 91.9

Retrieved one by one from the list above, two records:
Compound | cell viability [%]
COc1cc(C(=O)NCc2ccc(OCCN(C)C)cc2)cc(OC)c1OC [Tribenzagan Hydrochloride] | 78
CCc1cc2c(cc1N1CCC(N3CCOCC3)CC1)C(C)(C)c1[nH]c3cc(C#N)ccc3c1C2=O [Alectinib hydrochloride] | 97.8
